PubChem BioAssay AID1671195 | Yale University, 2021
The whole screen tested about 22,000 reagents; below is a part drawn at random. About 1,510 of all reagents (6.9%) were called active. 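Active includes knockdowns raising or lowering LDL uptake; positive z-scores mean more uptake, negative mean less.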 Reagents against one gene are numbered here.

Aim: 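Regulators of LDL receptor activity judged by labelled LDL uptake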 (primary screen)
Cell system: human Huh7 hepatoma cells
Reagent: siRNA pool against human genes, 18 nM
Timing: about 2 to 2.5 days of knockdown, then 8 h LDL uptake
Treatment: DiI-labelled LDL at 30 µg/ml for 8 h, in lipoprotein-deficient serum medium
Read-out: 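Fluorescent LDL signal imaged in cells, scaled to the plate median, robust z-score for each replicate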
Reading the numbers: robust z-score: higher = more LDL uptake after knockdown
Rule for the call: 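Active when two or more replicates show a robust z-score above 2 or below -2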

gene | reagent no. | robust z-score, replicate 1 | robust z-score, replicate 2 | robust z-score, replicate 3 | Outcome
GEMIN8 | 1 | -1.16 | 0.281 | -0.928 | inactive
LOC388563 (retired record) | 1 | -1.51 | -1.21 | -1.29 | inactive
DNAI2 | 1 | -0.408 | -0.868 | -1.04 | inactive
ZNF252P-AS1 | 1 | 0.0795 | -0.122 | -0.024 | inactive
YIPF6 | 1 | 0.337 | 0.409 | 0.564 | inactive
TBX15 | 1 | -0.535 | -0.211 | -0.363 | inactive
NOL9 | 1 | 0.899 | 1.55 | 1.24 | inactive
TMC1 | 1 | 0.582 | 1.59 | 1.59 | inactive
OSBP2 | 1 | -1.51 | -0.986 | -1.06 | inactive
GALK1 | 1 | 1.57 | 1.37 | 0.625 | inactive
KLK11 | 1 | 0.0445 | 0.111 | 0.587 | inactive
ACKR2 | 1 | 0.15 | 0.0116 | -0.432 | inactive
SLC20A2 | 1 | -0.764 | -1.31 | -1.04 | inactive
INTS14 | 1 | -0.0812 | 0.903 | 1.52 | inactive
VSIG8 | 1 | 0.67 | 0.7 | 0.951 | inactive
RPL6P25 | 1 | 0.738 | 0.52 | 0.989 | inactive
B3GNT3 | 1 | 0.571 | 2.33 | 1.45 | inactive
HMGA2 | 1 | -1.9 | -1.22 | -1.9 | inactive
CRYBB3 | 1 | -0.795 | 0.502 | -0.181 | inactive
MAD2L1BP | 1 | 1.85 | 0.805 | -0.485 | inactive
ATP11C | 1 | 0.0031 | 0.348 | -0.434 | inactive
MTAP | 1 | -0.0208 | -0.487 | -0.369 | inactive

Records listed so far whose target name begins with M or m (2):
gene | reagent no. | robust z-score, replicate 1 | robust z-score, replicate 2 | robust z-score, replicate 3 | Outcome
MAD2L1BP | 1 | 1.85 | 0.805 | -0.485 | inactive
MTAP | 1 | -0.0208 | -0.487 | -0.369 | inactive

More results:
gene | reagent no. | robust z-score, replicate 1 | robust z-score, replicate 2 | robust z-score, replicate 3 | Outcome
RPL10P17 | 1 | -0.601 | -1.09 | -0.618 | inactive
SSB | 1 | 0.462 | 0.122 | 0.742 | inactive
TSPAN6 | 1 | 1.59 | -0.606 | -0.303 | inactive
TSNAX | 1 | -0.698 | -1.14 | -0.768 | inactive
SEPTIN1 | 1 | 0.0338 | 0.691 | 0.904 | inactive
LINC02860 | 1 | -0.125 | -0.00526 | -0.00905 | inactive
LINC01854 | 1 | -0.646 | -0.576 | -0.723 | inactive
MKRN1 | 1 | -0.121 | -0.313 | 0.0891 | inactive
UGT2B10 | 1 | 0.358 | 0.149 | 0.56 | inactive
FOXQ1 | 1 | 2.27 | 2.36 | 3.18 | active
SPATA46 | 1 | 1.07 | 0.769 | 0.711 | inactive
PIGZ | 1 | 2.07 | 2.96 | 3.01 | active
CDC7 | 1 | -0.0286 | 0.733 | 0.258 | inactive
LYPD1 | 1 | 0.0504 | 0.203 | -0.137 | inactive
ZNF404 | 1 | -0.262 | -0.149 | -0.22 | inactive
CREBL2 | 1 | -0.303 | -0.888 | -1.55 | inactive
HEATR3 | 1 | -0.441 | -0.109 | 0.516 | inactive
CRKL | 1 | -0.0291 | -0.00448 | -0.225 | inactive
SAMD3 | 1 | -0.808 | -2.06 | -1.02 | inactive
MCMDC2 | 1 | 0.165 | 1.64 | 0.449 | inactive
CBY2 | 1 | -0.322 | -0.686 | -0.0105 | inactive
DPRX | 1 | -0.481 | -1.19 | -0.837 | inactive
LOC388823 (retired record) | 1 | 1.35 | 1.63 | 1.16 | inactive
FBXO4 | 1 | 0.657 | 0.844 | 0.834 | inactive
CSNK2A1 | 1 | 0.983 | 0.569 | 1.64 | inactive
H4C2 | 1 | -0.76 | 0.932 | 0.458 | inactive
SCAMP2 | 1 | -0.946 | -1.6 | -1.93 | inactive
OR2T6 | 1 | -1.28 | -0.838 | -1 | inactive
TRIM59 | 1 | 0.448 | 0.558 | 0.501 | inactive
F8 | 1 | -2.42 | -2.04 | -2.05 | active
ACY3 | 1 | 1.71 | 1.26 | 1.19 | inactive
MFAP1 | 1 | 2.28 | 2.12 | 1.84 | active
DHX38 | 1 | 1.84 | 1.79 | 2.54 | inactive
RER1 | 1 | 0.163 | 0.116 | 0.188 | inactive
ATP10D | 1 | -0.291 | -0.731 | -0.735 | inactive
LTV1 | 1 | 0.401 | -0.00606 | -0.567 | inactive
IFIH1 | 1 | 0.318 | -0.185 | 0.122 | inactive
ST8SIA5 | 1 | 0.81 | 1.11 | 1.3 | inactive
FLJ10246 (retired record) | 1 | 0.443 | 0.0717 | 1.33 | inactive
TGM7 | 1 | -0.822 | -0.938 | -0.439 | inactive
KCNA1 | 1 | 4.82 | 3.31 | 3.82 | active
ZFHX3 | 1 | 1.82 | 1.07 | 1.27 | inactive
ZFHX3 | 2 | 0.171 | 0.138 | 0.447 | inactive
KCTD17 | 1 | 0.654 | -0.351 | -0.987 | inactive
PPIAP19 | 1 | -0.78 | -0.88 | -0.907 | inactive
IPO13 | 1 | 0.577 | 0.0322 | 0.693 | inactive
